Data taken from PubChem BioAssay AID588849 (Broad Institute, 2011).
Inconclusive means that the source gave no clear call. Such entries were picked first, then a sample of the others. Calls of active or inactive are those of the source. How the calls were made is not given here.

Chains of the proteins cited; added tags and fusions are not shown. Lines headed by an entry give the natural chain unless they say otherwise; changes in a name come on top.
UniProt Q9Y256: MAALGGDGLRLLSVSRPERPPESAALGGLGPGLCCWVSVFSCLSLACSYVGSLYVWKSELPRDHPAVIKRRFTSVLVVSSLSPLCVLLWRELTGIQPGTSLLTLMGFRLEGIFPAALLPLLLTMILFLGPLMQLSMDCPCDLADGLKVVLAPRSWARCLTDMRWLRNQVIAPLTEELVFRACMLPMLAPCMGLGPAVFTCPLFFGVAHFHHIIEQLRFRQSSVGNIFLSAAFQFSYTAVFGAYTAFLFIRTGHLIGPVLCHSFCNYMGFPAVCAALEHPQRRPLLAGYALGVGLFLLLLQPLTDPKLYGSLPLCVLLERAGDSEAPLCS

The compounds below were run against CAAX prenyl protease 2 (Homo sapiens) (UniProt Q9Y256) (assay: human Rce1 protease inhibitors, dose response, biochemical, yeast membranes, quenched-peptide fluorescence, cherry-pick (AID 588849)). Conditions: yeast membrane fractions expressing human Rce1, quenched-peptide fluorescence, 4 h; at 10 µM (top of the series).

Activity change, negative = inhibition, inactive:
O=C(CSc1n[nH]c(-c2ccc(S(=O)(=O)N3CCCCC3)cc2)n1)Nc1nccs1 -21.8%, CCC(C)Sc1cc(-c2nc3ccccn3c2NC2CCCCC2)ccc1OC (stereo not given) 99.5%, O=C(NCCc1c[nH]c2ccccc12)OCCSS(=O)(=O)O 1.36%, Cc1c(Cc2ccccc2)c(=O)oc2c(C)c(OCC(=O)N3CCC(C(=O)O)CC3)ccc12 -29.6%, COc1ccc(-c2ccc3oc(-c4ccc(OC)cc4)c(-c4ccc(OC)cc4)c3c2)cc1 -14.4%, Nc1nc2c(ncn2COC(CO)CO)c(=O)[nH]1 7.69%

Activity change, negative = inhibition, inconclusive:
CN(C)S(=O)(=O)c1ccc(NC(=O)/C=C/c2ccccc2Cl)cc1 -14.8%, Cc1ccc2nc3c(c(N)c2c1)CCN3C -9.3%, Cc1nc(N2CCCCC2)c2c(C)c(C(=O)Nc3ccccc3C(F)(F)F)sc2n1 -59.5%, CCn1cc(/C=C(\NC(=O)c2ccccc2)C(=O)N2CCOCC2)c2ccccc21 -32.8%, CN(C(=O)c1ccc2c(c1)SC1=NS(=O)(=O)CCN12)C(c1ccccc1)c1ccccc1 -18%, Cc1cc(-c2ccccc2)n2nc(C)c(C#N)c2n1 -13.7%, NC(=O)CSC1=Nc2ccccc2C2=NC(c3ccccc3)C(=O)N12 (stereo not given) -22.9%, CC1COc2c(N3CCN(C)CC3)c(F)cc3c(=O)c(C(=O)O)cn1c23 (stereo not given) 34.4%, N#Cc1nc(-c2ccco2)oc1N1CCN(C(c2ccccc2)c2ccccc2)CC1 64.9%
